Measurements reported in PubChem BioAssay AID686938 (Drosophila RNAi Screening Center, 2013).
The deposit covers about 23,000 reagents; this is a random part of those with a known target gene and a result. Over the whole deposit, 75 (0.33%) are marked active. 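Raw plate signals without normalisation; calls rest on plate z-scores that were not deposited; ratio present for only 364 wells.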 Names joined by + are all predicted targets of the reagent. The record does not give: the dose of the treatment.

Test: 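Looking for CRAC channel components and the factors controlling them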 (primary screen)
Cell system: Drosophila S2R+ cells
Reagent: long dsRNA against Drosophila genes, about 0.25 µg dsRNA per well, roughly 10,000 cells
Time to read-out: 5 days of knock-down before the calcium assay
Challenge: thapsigargin (SERCA pump blocker) to empty calcium stores; entry signal taken 4 min after adding it
Detection: 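Per-well fluo-4 fluorescence in two replicates, unnormalised, measured in resting cells and 4 min after store depletion by the SERCA blocker thapsigargin; ratio of the two present in few wells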
Scale: calcium entry signal: higher = stronger calcium signal after store depletion; entry to resting ratio: higher = more calcium entry relative to resting level; resting calcium signal: higher = higher resting calcium signal
Hit rule: 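Called when the plate z-score of the entry-to-rest ratio, mean of duplicates, falls below −3; wells with low overall dye signal (Fmax z below −2) or more than five off-targets excluded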
Meaning of the calls: active = strongly reduced calcium entry; inactive = no strong reduction

calcium entry signal, replicate 1 (fluorescence units) | calcium entry signal, replicate 2 (fluorescence units) | entry to resting ratio | resting calcium signal, replicate 1 (fluorescence units) | resting calcium signal, replicate 2 (fluorescence units) | outcome | target gene | dsRNA
3.33e7 | 1.85e7 | – | 1.49e7 | 9.33e6 | inactive | Enoph | DRSC12201
4.34e7 | 2.82e7 | – | 2.12e7 | 1.28e7 | inactive | CG32579 | DRSC19872
3.11e7 | 5.44e7 | – | 1.45e7 | 2.54e7 | inactive | Deaf1 | DRSC11143
5.14e7 | 3.08e7 | – | 2.29e7 | 1.32e7 | inactive | Deaf1 | DRSC22786
6.26e7 | – | – | 2.86e7 | – | inactive | CG4619 | DRSC02764
3.24e7 | 4.60e7 | – | 1.55e7 | 6.14e7 | inactive | Npc2b | DRSC15464
5.47e7 | 2.41e7 | – | 2.73e7 | 1.25e7 | inactive | ND-19 | DRSC04404
4.79e7 | 5.15e7 | – | 2.43e7 | 2.53e7 | inactive | CG12655 | DRSC20678
3.52e7 | 5.11e7 | – | 1.88e7 | 2.17e7 | inactive | CG34187 (retired record) + Trpm | DRSC05543
3.48e7 | 4.20e7 | – | 1.80e7 | 1.91e7 | inactive | dpr10 | DRSC09015
3.12e7 | 3.83e7 | – | 1.68e7 | 1.84e7 | inactive | dpr10 | DRSC09018
3.60e7 | 3.76e7 | – | 1.85e7 | 1.72e7 | inactive | dpr10 | DRSC10159
3.54e7 | 3.36e7 | – | 1.78e7 | 1.50e7 | inactive | dpr10 | DRSC10160
3.73e7 | 3.05e7 | – | 1.65e7 | 1.46e7 | inactive | CtsL2 | DRSC06978
2.36e7 | 3.45e7 | – | 1.24e7 | 1.37e7 | inactive | CG31789 | DRSC01645
4.97e7 | 3.62e7 | – | 2.17e7 | 1.61e7 | inactive | CG31827 + CG18478 | DRSC01958
4.49e7 | – | – | 2.37e7 | – | inactive | sced | DRSC04990
3.13e7 | 3.14e7 | – | 1.51e7 | 1.65e7 | inactive | CG8516 | DRSC16437
3.62e7 | 2.95e7 | – | 2.12e7 | 1.56e7 | inactive | VAChT | DRSC13311
3.08e7 | 2.77e7 | – | 1.46e7 | 1.21e7 | inactive | VAChT | DRSC16608
2.98e7 | 2.80e7 | – | 1.58e7 | 1.47e7 | inactive | Uba2 | DRSC11311
4.36e7 | 4.29e7 | – | 2.03e7 | 2.03e7 | inactive | CG10184 | DRSC14204
3.83e7 | 4.02e7 | – | 1.62e7 | 1.87e7 | inactive | jagn | DRSC12152

In a second layout: 5 of the entries above
calcium entry signal, replicate 1 (fluorescence units)	calcium entry signal, replicate 2 (fluorescence units)	entry to resting ratio	resting calcium signal, replicate 1 (fluorescence units)	resting calcium signal, replicate 2 (fluorescence units)	outcome	target gene	dsRNA
3.54e7	3.36e7		1.78e7	1.50e7	inactive	dpr10	DRSC10160
3.73e7	3.05e7		1.65e7	1.46e7	inactive	CtsL2	DRSC06978
2.36e7	3.45e7		1.24e7	1.37e7	inactive	CG31789	DRSC01645
4.97e7	3.62e7		2.17e7	1.61e7	inactive	CG31827 + CG18478	DRSC01958
4.49e7			2.37e7		inactive	sced	DRSC04990

Further results follow:
calcium entry signal, replicate 1 (fluorescence units) | calcium entry signal, replicate 2 (fluorescence units) | entry to resting ratio | resting calcium signal, replicate 1 (fluorescence units) | resting calcium signal, replicate 2 (fluorescence units) | outcome | target gene | dsRNA
3.35e7 | 4.37e7 | 2.1 | 1.58e7 | 1.65e7 | inactive | CG13358 | DRSC18534
3.25e7 | 2.27e7 | – | 1.51e7 | 9.95e6 | inactive | CG9590 | DRSC16506
5.68e7 | 6.08e7 | 2.1 | 2.72e7 | 2.50e7 | inactive | CG14626 | DRSC18631
3.32e7 | 3.91e7 | – | 1.65e7 | 1.75e7 | inactive | Ptth | DRSC00356
2.35e7 | 3.29e7 | – | 1.16e7 | 1.50e7 | inactive | Lrpprc2 | DRSC18605
3.65e7 | 4.34e7 | – | 1.61e7 | 1.89e7 | inactive | ringer | DRSC10455
4.83e7 | 3.16e7 | – | 2.09e7 | 1.60e7 | inactive | CG15155 | DRSC02456
3.88e7 | 6.61e7 | – | 2.00e7 | 2.70e7 | inactive | CG14275 | DRSC02379
4.46e7 | 5.15e7 | – | 2.01e7 | 2.54e7 | inactive | CheB53a | DRSC06625
2.73e7 | 8.50e7 | – | 1.27e7 | 3.79e7 | inactive | CG31211 | DRSC14953
3.00e7 | 3.47e7 | – | 1.58e7 | 1.73e7 | inactive | CG31211 | DRSC15344
2.20e7 | 3.23e7 | – | 1.24e7 | 1.56e7 | inactive | CG31211 | DRSC21478
3.39e7 | 3.35e7 | – | 1.66e7 | 1.60e7 | inactive | dec | DRSC18759
2.99e7 | 2.74e7 | – | 1.57e7 | 1.35e7 | inactive | dec | DRSC21477
1.75e7 | 2.67e7 | – | 1.19e7 | 1.73e7 | inactive | Sf3b5 | DRSC14460
3.83e7 | 2.76e7 | – | 2.65e7 | 1.46e7 | inactive | CG42455 + vnc | DRSC09867
4.39e7 | 3.97e7 | – | 2.34e7 | 2.07e7 | inactive | CG13894 | DRSC08364
3.66e7 | 3.19e7 | – | 1.74e7 | 1.55e7 | inactive | CG13894 | DRSC23205
1.95e7 | 2.57e7 | – | 1.05e7 | 1.34e7 | inactive | CG14131 | DRSC10135
4.27e7 | 4.64e7 | – | 1.90e7 | 2.22e7 | inactive | CG5773 | DRSC06955
4.84e7 | – | – | 2.95e7 | – | inactive | Su(var)205 | DRSC03446
3.03e7 | 2.95e7 | – | 1.57e7 | 1.70e7 | inactive | Nup62 | DRSC06970
3.56e7 | 3.02e7 | – | 1.86e7 | 1.59e7 | inactive | Xrcc2 | DRSC19984
6.09e7 | 4.68e7 | – | 2.60e7 | 2.07e7 | inactive | Tim17a2 | DRSC12252
2.71e7 | 3.15e7 | – | 1.40e7 | 1.51e7 | inactive | Cyt-c1L | DRSC14860
3.49e7 | 5.17e7 | – | 1.77e7 | 2.92e7 | inactive | Cyt-c1L | DRSC22096
2.89e7 | 3.45e7 | – | 1.56e7 | 1.67e7 | inactive | cmb | DRSC09790
5.54e7 | 3.86e7 | – | 3.41e7 | 1.72e7 | inactive | CG10752 | DRSC09799
4.36e7 | 5.46e7 | – | 2.16e7 | 2.27e7 | inactive | Cnot4 | DRSC02830
4.24e7 | 5.52e7 | – | 2.10e7 | 2.42e7 | inactive | Cnot4 | DRSC02831
3.16e7 | 4.10e7 | – | 1.64e7 | 1.92e7 | inactive | CG4049 | DRSC04443
6.10e7 | – | – | 2.74e7 | – | inactive | msb1l | DRSC03572
3.32e7 | 4.49e7 | – | 1.80e7 | 2.16e7 | inactive | ect | DRSC10675
3.23e7 | 3.99e7 | – | 1.72e7 | 2.02e7 | inactive | ect | DRSC11343
3.60e7 | 4.98e7 | – | 1.83e7 | 2.71e7 | inactive | ect | DRSC22357
